Results deposited as PubChem BioAssay AID1508597 (Cure First, 2020)
This is a random part of the about 2,100 reagents, in one setting of the screen. 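Calls flag viability under 80% in either arm, not effects specific to rucaparib; the reference for percent is not stated.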 Not stated in the record: the 100% reference.

Assay: 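Survival screen with siRNA in ovarian cancer cells derived from patients, with or without rucaparib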 (primary screen)
Cell system: human ovarian carcinoma lines grown from tumours: OCI-P5x (papillary serous) and OCI-C5x (clear cell)
Reagent: siRNA pool against human genes, 1.25 pmol siRNA per well
Timing: 72 h or 96 h, depending on the cell culture
Challenge: rucaparib 20 µM (about IC30) or vehicle, present until read-out
Rucaparib or vehicle: Rucaparib
Cell line: OCI-C5x (clear cell)
Measurement: 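ATP luminescence measured at 72 or 96 h according to the culture, then normalised and expressed as percent viability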
Direction: viability, normalised: higher = more viable cells remaining
Call rule: 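a well counts as a hit if its normalised viability is under 80 percent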
Meaning of the calls: active = viability under 80%; inactive = viability 80% or more

SSBP1, technical replicate 1 showed viability, normalised (%) = 70.1; active.
With SSBP1, technical replicate 2, the values are viability, normalised (%) = 61; active.
SSBP1, technical replicate 3 gave viability, normalised (%) = 80.4; inactive.
For POLE, technical replicate 1, the values are viability, normalised (%) = 62.6; active.
POLE, technical replicate 2 showed viability, normalised (%) = 38.9; active.
For POLE, technical replicate 3 the deposit lists viability, normalised (%) = 47.8; active.
MKNK2, technical replicate 1 gave viability, normalised (%) = 69; active.
With MKNK2, technical replicate 2, the values are viability, normalised (%) = 63.7; active.
MKNK2, technical replicate 3 showed viability, normalised (%) = 70.2; active.

Reformatted: results already given.
target | technical replicate | viability, normalised (%) | Outcome
SSBP1 | 3 | 80.4 | inactive
POLE | 1 | 62.6 | active
POLE | 2 | 38.9 | active

The listing continues:
TOP1, technical replicate 1 scored viability, normalised (%) = 62.6; active.
With TOP1, technical replicate 2, the entry reads viability, normalised (%) = 83.7; inactive.
TOP1, technical replicate 3 showed viability, normalised (%) = 54.4; active.
For MORC4, technical replicate 1 the deposit lists viability, normalised (%) = 65.8; active.
MORC4, technical replicate 2 showed viability, normalised (%) = 48.6; active.
MORC4, technical replicate 3 scored viability, normalised (%) = 42.6; active.
For MAP4K1, technical replicate 1 the deposit lists viability, normalised (%) = 53.2; active.
With MAP4K1, technical replicate 2, the entry reads viability, normalised (%) = 56.4; active.
MAP4K1, technical replicate 3 gave viability, normalised (%) = 90.7; inactive.
With CSNK1A1L, technical replicate 1, the entry reads viability, normalised (%) = 56; active.
For CSNK1A1L, technical replicate 2, the entry reads viability, normalised (%) = 56.6; active.
For CSNK1A1L, technical replicate 3, the entry reads viability, normalised (%) = 58.8; active.
